Measurements reported in PubChem BioAssay AID540275 (National Center for Advancing Translational Sciences (NCATS), 2011).
About 620 (0.19%) of roughly 320,000 compounds were called active. The shares of active, inactive and inconclusive entries below differ from those in the screen. No stated cut-off is given here; in the data, active means activation above about 80%; inconclusive means between about 30% and that limit; inactive means weaker than that.

Protein sequences, listed by entry. Tags and fused reporters are not part of them.
UniProt Q8NER1, whole entry, looked up: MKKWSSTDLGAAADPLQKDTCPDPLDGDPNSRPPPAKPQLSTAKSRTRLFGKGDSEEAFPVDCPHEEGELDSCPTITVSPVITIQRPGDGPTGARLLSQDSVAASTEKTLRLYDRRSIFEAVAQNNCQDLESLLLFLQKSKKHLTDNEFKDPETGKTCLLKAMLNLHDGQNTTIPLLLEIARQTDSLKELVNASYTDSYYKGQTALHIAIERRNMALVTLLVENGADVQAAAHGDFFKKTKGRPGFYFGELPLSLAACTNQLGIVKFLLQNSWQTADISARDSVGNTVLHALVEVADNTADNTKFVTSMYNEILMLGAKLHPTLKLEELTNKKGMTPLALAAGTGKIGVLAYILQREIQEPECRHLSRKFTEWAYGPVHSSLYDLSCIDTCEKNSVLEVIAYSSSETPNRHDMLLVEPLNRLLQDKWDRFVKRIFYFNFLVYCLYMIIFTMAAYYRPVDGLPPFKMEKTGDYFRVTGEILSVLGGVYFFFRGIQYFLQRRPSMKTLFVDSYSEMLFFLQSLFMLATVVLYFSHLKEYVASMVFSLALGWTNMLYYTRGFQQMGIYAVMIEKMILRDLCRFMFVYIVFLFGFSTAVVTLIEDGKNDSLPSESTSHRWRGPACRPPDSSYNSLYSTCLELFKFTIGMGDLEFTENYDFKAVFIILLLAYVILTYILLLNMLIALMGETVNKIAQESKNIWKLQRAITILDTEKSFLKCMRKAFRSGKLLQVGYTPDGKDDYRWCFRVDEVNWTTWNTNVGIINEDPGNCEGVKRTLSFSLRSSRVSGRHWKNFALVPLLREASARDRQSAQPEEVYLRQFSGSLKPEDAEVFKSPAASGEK

Molecular target: Transient receptor potential cation channel subfamily V member 1 (Homo sapiens) (UniProt Q8NER1)
Test: HTS Assay for Compounds that Act as Agonists of the Vanilloid Receptor 1; further: 0% is about no effect
Conditions: TRPV1-expressing cells, Fluo-8 calcium influx, agonist mode; at 8.33 µM, active compounds read high
How it was run: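 TRPV1-expressing cells were cultured overnight at 35.5C and loaded with Fluo-8 calcium dye for 40 to 90 min at room temperature. After a 10 s baseline, compound was added and calcium influx was read kinetically for 3 min (ex 480/em 520 nm).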

| SMILES | activation |
| --- | --- |
| COc1ccc(NC(=O)NCCc2cccc(Cl)c2)cc1OC | inconclusive: 70.8% |
| C[C@@H]1[C@H](O)C[C@@]23COC(=O)C2=CCC[C@@H]3[C@@]1(C)CC/C(=C/CO)CO | inconclusive: 30.3% |
| O=C1c2cccc3c(N4CCCCC4)ccc(c23)C(=O)N1c1ccc(O)cc1 | inconclusive: 40.9% |
| CCCCNC(=O)c1cccc2c(=O)c(C)c(-c3ccccc3)oc12 | inactive: 21.6% |
| Cc1ccc(-c2csc3nc4cc(C(=O)NC5CCC(O)CC5)ccc4c(=O)n23)cc1 (stereo unspecified) | inconclusive: 36.2% |
| O=C(Nc1ccc2ccccc2c1)c1ccccc1F | inconclusive: 47.8% |
| COc1ccc[nH]c1=O | inconclusive: 31.7% |
| Cc1c(C(=O)N2CCCCC2C)sc2ncnc(N3CCc4ccccc4C3)c12 (stereo unspecified) | inconclusive: 46.4% |
| Cc1ccc(OCC(=O)NCCC2=CCCCC2)cc1 | inconclusive: 57% |
| CCOc1cc(/C=N\NC(=O)OC)ccc1OC(=O)c1ccco1 | inactive: -2.77% |
| COc1cccc(OC)c1OCCCCN1CCC(Cc2ccccc2)CC1 | inactive: 1.5% |
| Cc1ccc(S(=O)(=O)Nc2ccc(-n3c(C)nc4ccccc4c3=O)cc2)cc1 | inactive: -4% |
| CC(C)[C@H](NS(=O)(=O)c1ccccc1)C(=O)OCC(=O)N1N=C(c2ccc(Cl)cc2)CC1c1ccco1 (stereo partly specified) | inactive: -1.05% |
| Cn1ccnc1SCC(=O)n1c2c(c3ccccc31)CCCC2 | inconclusive: 31.9% |
| O=C(Nc1ccc(F)c(F)c1)c1ccc2c(c1)OCO2 | inconclusive: 70.1% |
| Cc1ccc(C(=O)Nc2ccc(S(=O)(=O)N3CCOCC3)cc2)cc1C | active: 82.2% |
| Cc1cc(C(=O)CN2C(=O)c3ccccc3C2=O)c(C)n1Cc1cccs1 | inactive: 17.8% |
| CC(=O)Nc1ccc2nc(C3CC3)n(Cc3ccc(Cl)cc3)c(=O)c2c1 | inactive: -1.42% |
| CC(=O)NCCc1nc2ccccc2n1CCOc1cccc(C)c1 | inconclusive: 55.8% |
| O=C(c1cc(COc2c(F)cccc2F)on1)N1CCSCC1 | inconclusive: 77.2% |
| O=c1oc(CCCO)cc2ccc(C#Cc3ccsc3)cc12 | inconclusive: 40.8% |
| COc1ccc(C)cc1NC(=O)c1nn(C)cc1Br | inconclusive: 53.8% |
| COc1cc(/C=N/NC(=O)c2csc3c2CCCC3)cc(OC)c1O | inconclusive: 34.5% |
| CCn1nc(NC(=O)CC(C)C)c2cc3cccc(C)c3nc21 | inconclusive: 46.8% |
| CCOC(=O)C1CCCN(c2nc(C)nc3c2oc2ccccc23)C1 (stereo unspecified) | inconclusive: 31.9% |
| C/C(=N\NC(=O)c1cccc(S(=O)(=O)N2CCCC2)c1)c1ccc(C)cc1 | inconclusive: 44.2% |

Reprinted from the entries so far (two entries):

| SMILES | activation |
| --- | --- |
| CC(=O)NCCc1nc2ccccc2n1CCOc1cccc(C)c1 | inconclusive: 55.8% |
| O=C(c1cc(COc2c(F)cccc2F)on1)N1CCSCC1 | inconclusive: 77.2% |
